Measurements taken from patent publication US20250084056A1, “SUBSTITUTED OXOISOINDOLINYL PIPERIDINE-2,6-DIONE COMPOUNDS” (BRISTOL-MYERS SQUIBB COMPANY, priority 2023, published 2025).
Some results were stated once for a whole list of compounds, not compound by compound.

Sequences of proteins named here, by UniProt entry; tags and fusion partners are left off. A change or cut given only in a name is not applied to a line headed by its entry.
UniProt P24864, whole entry: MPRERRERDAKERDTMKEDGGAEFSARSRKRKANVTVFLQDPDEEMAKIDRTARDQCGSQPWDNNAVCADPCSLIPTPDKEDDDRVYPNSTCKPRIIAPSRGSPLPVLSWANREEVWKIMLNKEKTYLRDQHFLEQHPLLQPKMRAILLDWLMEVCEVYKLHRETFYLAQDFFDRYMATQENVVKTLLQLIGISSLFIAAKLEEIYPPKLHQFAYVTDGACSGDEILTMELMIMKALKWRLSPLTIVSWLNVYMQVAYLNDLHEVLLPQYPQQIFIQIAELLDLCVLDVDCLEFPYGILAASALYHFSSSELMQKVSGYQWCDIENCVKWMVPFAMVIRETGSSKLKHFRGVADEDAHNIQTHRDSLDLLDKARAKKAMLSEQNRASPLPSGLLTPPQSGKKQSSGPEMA
UniProt Q96SW2: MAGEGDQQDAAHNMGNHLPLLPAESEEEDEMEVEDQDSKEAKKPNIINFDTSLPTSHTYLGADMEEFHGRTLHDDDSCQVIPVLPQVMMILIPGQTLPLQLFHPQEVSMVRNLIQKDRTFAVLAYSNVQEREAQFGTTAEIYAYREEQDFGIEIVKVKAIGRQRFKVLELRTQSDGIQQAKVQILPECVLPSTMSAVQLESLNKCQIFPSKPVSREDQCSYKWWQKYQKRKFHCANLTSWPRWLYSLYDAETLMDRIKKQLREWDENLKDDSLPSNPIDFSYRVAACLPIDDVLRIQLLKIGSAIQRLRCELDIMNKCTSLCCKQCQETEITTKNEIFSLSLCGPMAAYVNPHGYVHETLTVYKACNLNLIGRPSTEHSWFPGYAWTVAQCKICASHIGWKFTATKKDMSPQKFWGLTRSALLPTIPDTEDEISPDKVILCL

target: Cyclin E1 (Homo sapiens, UniProt P24864+Q96SW2); assay: Cyclin E1 Cellular Degradation Assay (MSD); format: cell-based; set-up: endogenous in cells; host or cells: OVCAR3; conditions: degradation of Cyclin E1 over degradation of GSPT1, Table 18
Method in brief: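 Cyclin E1 remaining after 24 h compound exposure of OVCAR3 cells was quantified in lysates by electrochemiluminescent MSD sandwich assay. DC50 (50% response concentration) and Dmax (maximum response) were calculated, with 110% response set by a reference compound at […].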

selectivity, ratio of GSPT1 DC50/Cyclin E1 DC50, at least 9:
O=C1CCC(N2Cc3ccc(COC(=O)Nc4ccc(Oc5ccccc5F)cc4)c(Oc4ccccc4)c3C2=O)C(=O)N1 (centres unmarked) [Example 65, [2-(2,6-dioxopiperidin-3-yl)-3-oxo-4-phenoxy-2,3-dihydro-1H-isoindol-5-yl]methyl N-[4-(2-fluorophenoxy)phenyl]carbamate]
O=C1CCC(N2Cc3ccc(COC(=O)Nc4ccc(Oc5ccccc5Cl)cc4)c(Oc4ccccc4)c3C2=O)C(=O)N1 (centres unmarked) [Example 66, [2-(2,6-dioxopiperidin-3-yl)-3-oxo-4-phenoxy-2,3-dihydro-1H-isoindol-5-yl]methyl N-[4-(2-chlorophenoxy)phenyl]carbamate]
O=C1CCC(N2Cc3ccc(COC(=O)Nc4ccc(Oc5ccc(F)cc5F)cc4)c(Oc4ccccc4)c3C2=O)C(=O)N1 (centres unmarked) [Example 67, [2-(2,6-dioxopiperidin-3-yl)-3-oxo-4-phenoxy-2,3-dihydro-1H-isoindol-5-yl]methyl N-[4-(2,4-difluorophenoxy)phenyl]carbamate]
O=C1CCC(N2Cc3ccc(COC(=O)Nc4ccc(Oc5cccc(F)c5F)cc4)c(Oc4ccccc4)c3C2=O)C(=O)N1 (centres unmarked) [Example 68, [2-(2,6-dioxopiperidin-3-yl)-3-oxo-4-phenoxy-2,3-dihydro-1H-isoindol-5-yl]methyl N-[4-(2,3-difluorophenoxy)phenyl]carbamate]
O=C1CCC(N2Cc3ccc(COC(=O)Nc4ccc(Oc5ccc(F)c(F)c5)cc4F)c(Oc4ccccc4)c3C2=O)C(=O)N1 (centres unmarked) [Example 69, [2-(2,6-dioxopiperidin-3-yl)-3-oxo-4-phenoxy-2,3-dihydro-1H-isoindol-5-yl]methyl N-[4-(3,4-difluorophenoxy)-2-fluorophenyl]carbamate]
O=C1CCC(N2Cc3ccc(COC(=O)Nc4ccc(Oc5ccc(F)cc5Cl)cc4)c(Oc4ccccc4)c3C2=O)C(=O)N1 (centres unmarked) [Example 70, [2-(2,6-dioxopiperidin-3-yl)-3-oxo-4-phenoxy-2,3-dihydro-1H-isoindol-5-yl]methyl N-[4-(2-chloro-4-fluorophenoxy)phenyl]carbamate]
COc1c(COC(=O)Nc2ccc(Oc3ccc(Cl)c(F)c3)cc2)ccc2c1C(=O)N(C1CCC(=O)NC1=O)C2 (centres unmarked) [Example 71, [2-(2,6-dioxopiperidin-3-yl)-4-methoxy-3-oxo-2,3-dihydro-1H-isoindol-5-yl]methyl N-[4-(4-chloro-3-fluorophenoxy)phenyl]carbamate]
COc1cc(Oc2cc(F)c(F)c(F)c2)ccc1NC(=O)OCc1ccc2c(c1OC)C(=O)N(C1CCC(=O)NC1=O)C2 (centres unmarked) [Example 72, [2-(2,6-dioxopiperidin-3-yl)-4-methoxy-3-oxo-2,3-dihydro-1H-isoindol-5-yl]methyl N-[2-methoxy-4-(3,4,5-trifluorophenoxy)phenyl]carbamate]
COc1cc(Oc2cc(F)c(F)cc2C)ccc1NC(=O)OCc1ccc2c(c1OC)C(=O)N(C1CCC(=O)NC1=O)C2 (centres unmarked) [Example 73, [2-(2,6-dioxopiperidin-3-yl)-4-methoxy-3-oxo-2,3-dihydro-1H-isoindol-5-yl]methyl N-[4-(4,5-difluoro-2-methylphenoxy)-2-methoxyphenyl]carbamate]
COc1c(COC(=O)Nc2ccc(Oc3cc(F)c(F)cc3C)cc2C)ccc2c1C(=O)N(C1CCC(=O)NC1=O)C2 (centres unmarked) [Example 74, [2-(2,6-dioxopiperidin-3-yl)-4-methoxy-3-oxo-2,3-dihydro-1H-isoindol-5-yl]methyl N-[4-(4,5-difluoro-2-methylphenoxy)-2-methylphenyl]carbamate]
COc1cc(Oc2ccc(F)cc2C)ccc1NC(=O)OCc1ccc2c(c1OC)C(=O)N(C1CCC(=O)NC1=O)C2 (centres unmarked) [Example 75, [2-(2,6-dioxopiperidin-3-yl)-4-methoxy-3-oxo-2,3-dihydro-1H-isoindol-5-yl]methyl N-[4-(4-fluoro-2-methylphenoxy)-2-methoxyphenyl]carbamate]
COc1c(COC(=O)Nc2ccc(Oc3ccc(F)cc3C)cc2C)ccc2c1C(=O)N(C1CCC(=O)NC1=O)C2 (centres unmarked) [Example 76, [2-(2,6-dioxopiperidin-3-yl)-4-methoxy-3-oxo-2,3-dihydro-1H-isoindol-5-yl]methyl N-[4-(4-fluoro-2-methylphenoxy)-2-methylphenyl]carbamate]
COc1c(COC(=O)Nc2ccc(Oc3cc(F)c(F)c(F)c3)cc2)ccc2c1C(=O)N(C1CCC(=O)NC1=O)C2 (centres unmarked) [Example 77, [2-(2,6-dioxopiperidin-3-yl)-4-methoxy-3-oxo-2,3-dihydro-1H-isoindol-5-yl]methyl N-[4-(3,4,5-trifluorophenoxy)phenyl]carbamate]
COc1c(COC(=O)Nc2ccc(Oc3cc(F)c(F)cc3C)cc2)ccc2c1C(=O)N(C1CCC(=O)NC1=O)C2 (centres unmarked) [Example 78, [2-(2,6-dioxopiperidin-3-yl)-4-methoxy-3-oxo-2,3-dihydro-1H-isoindol-5-yl]methyl N-[4-(4,5-difluoro-2-methylphenoxy)phenyl]carbamate]
COc1c(COC(=O)Nc2ccc(Oc3ccccc3F)cc2)ccc2c1C(=O)N(C1CCC(=O)NC1=O)C2 (centres unmarked) [Example 79, [2-(2,6-dioxopiperidin-3-yl)-4-methoxy-3-oxo-2,3-dihydro-1H-isoindol-5-yl]methyl N-[4-(2-fluorophenoxy)phenyl]carbamate]
COc1c(COC(=O)Nc2ccc(Oc3ccccc3Cl)cc2)ccc2c1C(=O)N(C1CCC(=O)NC1=O)C2 (centres unmarked) [Example 80, [2-(2,6-dioxopiperidin-3-yl)-4-methoxy-3-oxo-2,3-dihydro-1H-isoindol-5-yl]methyl N-[4-(2-chlorophenoxy)phenyl]carbamate]
COc1c(COC(=O)Nc2ccc(Oc3ccc(F)cc3C)cc2)ccc2c1C(=O)N(C1CCC(=O)NC1=O)C2 (centres unmarked) [Example 81, [2-(2,6-dioxopiperidin-3-yl)-4-methoxy-3-oxo-2,3-dihydro-1H-isoindol-5-yl]methyl N-[4-(4-fluoro-2-methylphenoxy)phenyl]carbamate]
COc1c(COC(=O)Nc2ccc(Oc3ccc(F)c(C)c3)cc2C)ccc2c1C(=O)N(C1CCC(=O)NC1=O)C2 (centres unmarked) [Example 82, [2-(2,6-dioxopiperidin-3-yl)-4-methoxy-3-oxo-2,3-dihydro-1H-isoindol-5-yl]methyl N-[4-(4-fluoro-3-methylphenoxy)-2-methylphenyl]carbamate]
COc1c(COC(=O)Nc2ccc(Oc3ccc(F)c(Cl)c3)cc2C)ccc2c1C(=O)N(C1CCC(=O)NC1=O)C2 (centres unmarked) [Example 83, [2-(2,6-dioxopiperidin-3-yl)-4-methoxy-3-oxo-2,3-dihydro-1H-isoindol-5-yl]methyl N-[4-(3-chloro-4-fluorophenoxy)-2-methylphenyl]carbamate]
COc1c(COC(=O)Nc2ccc(Oc3ccc(F)cc3)cc2)ccc2c1C(=O)N(C1CCC(=O)NC1=O)C2 (centres unmarked) [Example 84, [2-(2,6-dioxopiperidin-3-yl)-4-methoxy-3-oxo-2,3-dihydro-1H-isoindol-5-yl]methyl N-[4-(4-fluorophenoxy)phenyl]carbamate]
COc1c(COC(=O)Nc2ccc(Oc3ccccc3C(F)F)cc2)ccc2c1C(=O)N(C1CCC(=O)NC1=O)C2 (centres unmarked) [Example 85, [2-(2,6-dioxopiperidin-3-yl)-4-methoxy-3-oxo-2,3-dihydro-1H-isoindol-5-yl]methyl N-{4-[2-(difluoromethyl)phenoxy]phenyl}carbamate]
COc1c(COC(=O)Nc2ccc(Oc3ccccc3C(F)F)cc2F)ccc2c1C(=O)N(C1CCC(=O)NC1=O)C2 (centres unmarked) [Example 86, [2-(2,6-dioxopiperidin-3-yl)-4-methoxy-3-oxo-2,3-dihydro-1H-isoindol-5-yl]methyl N-{4-[2-(difluoromethyl)phenoxy]-2-fluorophenyl}carbamate]
COc1c(COC(=O)Nc2ccc(Oc3ccccc3C3CC3)cc2)ccc2c1C(=O)N(C1CCC(=O)NC1=O)C2 (centres unmarked) [Example 87, [2-(2,6-dioxopiperidin-3-yl)-4-methoxy-3-oxo-2,3-dihydro-1H-isoindol-5-yl]methyl N-[4-(2-cyclopropylphenoxy)phenyl]carbamate]
COc1cc(Oc2ccccc2C(F)F)ccc1NC(=O)OCc1ccc2c(c1OC)C(=O)N(C1CCC(=O)NC1=O)C2 (centres unmarked) [Example 88, [2-(2,6-dioxopiperidin-3-yl)-4-methoxy-3-oxo-2,3-dihydro-1H-isoindol-5-yl]methyl N-{4-[2-(difluoromethyl)phenoxy]-2-methoxyphenyl}carbamate]
COc1c(COC(=O)Nc2ccc(Oc3ccc(F)cc3C(F)F)cc2)ccc2c1C(=O)N(C1CCC(=O)NC1=O)C2 (centres unmarked) [Example 89, [2-(2,6-dioxopiperidin-3-yl)-4-methoxy-3-oxo-2,3-dihydro-1H-isoindol-5-yl]methyl N-{4-[2-(difluoromethyl)-4-fluorophenoxy]phenyl}carbamate]
COc1c(COC(=O)Nc2ccc(Oc3ccccc3C(F)(F)F)cc2Cl)ccc2c1C(=O)N(C1CCC(=O)NC1=O)C2 (centres unmarked) [Example 90, [2-(2,6-dioxopiperidin-3-yl)-4-methoxy-3-oxo-2,3-dihydro-1H-isoindol-5-yl]methyl N-{2-chloro-4-[2-(trifluoromethyl)phenoxy]phenyl}carbamate]
